The results in this text go back to article PMC11515973, “8-Oxoguanine DNA Glycosylase1 conceals oxidized guanine in nucleoprotein-associated RNA of respiratory syncytial virus”.

By UniProt entry, the sequences of proteins in these tests, tags left out.
UniProt P03418: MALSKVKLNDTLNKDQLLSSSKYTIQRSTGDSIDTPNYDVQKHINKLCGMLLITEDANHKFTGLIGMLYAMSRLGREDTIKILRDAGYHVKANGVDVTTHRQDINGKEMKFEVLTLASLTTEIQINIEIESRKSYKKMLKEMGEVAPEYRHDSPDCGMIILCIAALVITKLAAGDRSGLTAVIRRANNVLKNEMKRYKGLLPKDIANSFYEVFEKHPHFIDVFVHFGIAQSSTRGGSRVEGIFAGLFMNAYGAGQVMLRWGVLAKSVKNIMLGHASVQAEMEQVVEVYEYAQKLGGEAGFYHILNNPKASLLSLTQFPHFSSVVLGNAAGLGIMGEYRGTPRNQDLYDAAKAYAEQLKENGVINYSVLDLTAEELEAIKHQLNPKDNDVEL
UniProt O15527: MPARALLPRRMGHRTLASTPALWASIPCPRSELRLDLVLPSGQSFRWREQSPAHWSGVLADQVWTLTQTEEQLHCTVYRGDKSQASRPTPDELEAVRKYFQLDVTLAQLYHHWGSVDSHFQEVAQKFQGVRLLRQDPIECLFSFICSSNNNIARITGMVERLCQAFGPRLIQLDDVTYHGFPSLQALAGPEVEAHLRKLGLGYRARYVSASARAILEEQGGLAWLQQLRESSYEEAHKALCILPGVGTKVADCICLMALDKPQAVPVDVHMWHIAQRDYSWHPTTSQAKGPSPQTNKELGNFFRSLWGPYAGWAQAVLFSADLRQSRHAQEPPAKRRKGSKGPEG

No constants are given. Whether binding was seen depends on the method and setting. Some entries that bind do so weakly or less than the wild type. For some of these results: Sequences can lack the tags named with a protein.

The target of assay [1] is T1, His-tagged RSV M2-1 protein (RSV (strain not stated)) (UniProt P04545).
T1 sequence: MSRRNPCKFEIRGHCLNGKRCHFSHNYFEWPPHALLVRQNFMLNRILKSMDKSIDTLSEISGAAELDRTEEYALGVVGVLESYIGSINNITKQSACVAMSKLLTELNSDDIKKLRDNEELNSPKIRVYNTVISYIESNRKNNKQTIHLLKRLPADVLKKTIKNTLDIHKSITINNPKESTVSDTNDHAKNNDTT
In words: pull-down; reciprocal setup: His-tagged protein held (N attached to Dynabeads, 100 nM; M2-1 50 nM), incubated with varying concentrations of GST-OGG1; room temperature, 10 min; immunoblot with anti-OGG1 antibody; both purified.

The target in assay [2] is His-tagged RSV nucleoprotein (Creative BioMart NP-424V) (RSV (strain not stated)) (UniProt P03418). The assay is described as above.
Assay [3] addresses GST-tagged OGG1 (OriGene TP720109) (UniProt O15527). In words: pull-down; GST-tagged OGG1 immobilised on glutathione agarose (100 nM with N, 50 nM with M2-1), incubated with increasing concentrations of the His-tagged protein; room temperature, 10 min; four washes; immunoblot; both purified. (In western blotting, separated proteins are transferred to a membrane and probed.)

Turning to “GST-tagged OGG1 (OriGene TP720109) (from UniProt O15527 1-345) (enzyme)”, the binding result in assay [1] and in assay [2] was “binds” in each case.
For the molecule “His-tagged RSV nucleoprotein (Creative BioMart NP-424V) (from UniProt P03418 1-391)”, the binding result in assay [3] is listed as “binds”.

B1: His-tagged RSV M2-1 protein (protein, UniProt P04545 1-194)
chain: T1 sequence
With B1, in assay [3], the binding result is reported as “binds”.
